This test concerns the target T1, common cytokine receptor γ chain (human (endogenous in Jurkat)) (UniProt P31785).
T1 sequence: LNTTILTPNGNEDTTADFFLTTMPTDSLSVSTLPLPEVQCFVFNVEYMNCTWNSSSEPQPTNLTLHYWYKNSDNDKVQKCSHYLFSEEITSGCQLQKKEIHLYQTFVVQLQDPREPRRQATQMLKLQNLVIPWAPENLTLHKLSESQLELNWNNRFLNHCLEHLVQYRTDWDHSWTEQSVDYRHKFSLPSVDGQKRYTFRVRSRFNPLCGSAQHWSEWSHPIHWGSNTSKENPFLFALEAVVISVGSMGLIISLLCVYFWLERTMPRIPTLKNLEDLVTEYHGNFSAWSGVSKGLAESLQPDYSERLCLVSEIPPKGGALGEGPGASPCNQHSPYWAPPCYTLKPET
The test can be described thus: co-IP; endogenous proteins; Jurkat-PD-1 cells stimulated with PHA (50 or 150 ng/mL) in the presence of plate-bound hPD-L1-Fc fusion protein (or control hIgG1, 2 μg/mL) for the indicated times; NP-40 lysis buffer, Protein-G Sepharose, 4 °C for 3 h, washed with lysis buffer containing 500 mM NaCl ….

Amino acid sequences for entries named in this document (tags omitted).
UniProt P45974: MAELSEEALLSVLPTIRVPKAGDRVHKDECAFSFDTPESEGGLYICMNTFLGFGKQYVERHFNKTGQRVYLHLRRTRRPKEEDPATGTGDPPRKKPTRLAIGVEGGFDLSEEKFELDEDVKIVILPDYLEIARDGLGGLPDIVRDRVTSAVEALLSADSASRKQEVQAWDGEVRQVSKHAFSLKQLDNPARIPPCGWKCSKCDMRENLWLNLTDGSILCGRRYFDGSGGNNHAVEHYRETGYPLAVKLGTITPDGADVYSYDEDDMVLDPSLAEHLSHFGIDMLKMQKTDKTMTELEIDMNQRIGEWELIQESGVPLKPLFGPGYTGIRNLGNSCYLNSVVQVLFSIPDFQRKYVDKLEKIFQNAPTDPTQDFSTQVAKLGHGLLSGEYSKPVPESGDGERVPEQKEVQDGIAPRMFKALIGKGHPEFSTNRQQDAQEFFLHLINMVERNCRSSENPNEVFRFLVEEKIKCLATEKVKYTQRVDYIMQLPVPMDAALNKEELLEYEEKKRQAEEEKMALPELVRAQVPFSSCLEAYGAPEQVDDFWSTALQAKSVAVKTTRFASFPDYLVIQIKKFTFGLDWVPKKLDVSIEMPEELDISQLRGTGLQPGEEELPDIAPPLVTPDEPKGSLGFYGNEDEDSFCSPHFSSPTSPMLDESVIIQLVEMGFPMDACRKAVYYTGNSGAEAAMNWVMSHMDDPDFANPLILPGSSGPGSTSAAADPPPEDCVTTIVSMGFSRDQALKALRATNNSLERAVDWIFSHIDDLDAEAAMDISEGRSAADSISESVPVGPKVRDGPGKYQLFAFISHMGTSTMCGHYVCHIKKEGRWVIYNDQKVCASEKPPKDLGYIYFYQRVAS

Results are given in words; binding and its absence hold for the method and conditions named. In cells and extracts the contact can be indirect. Some results given as binding are weak or reduced against the parent protein; the word gives no strength.

In the case of “USP5 (from UniProt P45974 1-858) (enzyme)”, the binding entry is reported as “binds”.

The values above are taken from paper PMC10709454.
